Results deposited as PubChem BioAssay AID493246 (Drosophila RNAi Screening Center, 2011).

- Assay: 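Genes fly cells need to grow and stay alive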 (primary screen)
- System: Drosophila Kc and S2R+ cells
- Knock-down reagent: long dsRNA against Drosophila genes
- Measured: 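Raw, unnormalised count of remaining cells in each well; per-plate z-scores of cell number underlie the calls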
- Scale: Kc cell number and S2R+ cell number: higher = more cells remaining
- Rule for the call: 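Active when the per-plate z-score of cell number is 3 or more in the direction of fewer cells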
The screen tested about 21,000 reagents; this is a random part of those that have a named target and a result. Of all reagents, 429 (2%) were called active. 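Values are raw and not normalised between plates; calls rest on per-plate z-scores that were not deposited.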 The numbers tell different reagents against one gene apart. Not given: the amount of reagent, the time to read-out.

| Gene | dsRNA no. | Kc cell number, rep 1 | Kc cell number, rep 2 | S2R+ cell number, rep 1 | S2R+ cell number, rep 2 | Outcome |
| --- | --- | --- | --- | --- | --- | --- |
| Hip1 (Huntingtin interacting protein 1) | 1 | 1.43e6 | 1.48e6 | 1.38e6 | 1.27e6 | inactive |
| Bug22 (Basal body up regulated gene 22) | 1 | 1.49e6 | 1.57e6 | 1.28e6 | 1.41e6 | inactive |
| Mic26-27 (MICOS subunit 26/27) | 1 | 1.58e6 | 1.59e6 | 1.19e6 | 1.24e6 | inactive |
| GCC88 (GRIP and coiled-coil domain containing 88 kDa) | 1 | 1.51e6 | 1.57e6 | 1.23e6 | 1.35e6 | inactive |
| Vps35 (Vacuolar protein sorting 35) | 1 | 1.32e6 | 1.40e6 | 1.02e6 | 1.07e6 | inactive |
| mRpS9 (mitochondrial ribosomal protein S9) | 1 | 1.39e6 | 1.48e6 | 1.05e6 | 1.20e6 | inactive |
| mRpS9 (mitochondrial ribosomal protein S9) | 2 | 1.29e6 | 1.44e6 | 9.16e5 | 1.04e6 | inactive |
| Pep (Protein on ecdysone puffs) | 1 | 1.65e6 | 1.72e6 | 1.17e6 | 1.20e6 | inactive |
| CG10804 | 1 | 5.60e5 | – | 8.37e5 | – | inactive |

Continued (2 carried over from the part before).
| Gene | dsRNA no. | Kc cell number, rep 1 | Kc cell number, rep 2 | S2R+ cell number, rep 1 | S2R+ cell number, rep 2 | Outcome |
| --- | --- | --- | --- | --- | --- | --- |
| Pep (Protein on ecdysone puffs) | 1 | 1.65e6 | 1.72e6 | 1.17e6 | 1.20e6 | inactive |
| CG10804 | 1 | 5.60e5 | – | 8.37e5 | – | inactive |
| Abcd1 (ATP binding cassette subfamily D member 1) | 1 | 5.09e5 | – | 8.25e5 | – | inactive |
| AlaRS-m (Alanyl-tRNA synthetase, mitochondrial) | 1 | 1.39e6 | 1.41e6 | 1.37e6 | 1.23e6 | inactive |
| TM9SF3 (Transmembrane 9 superfamily protein member 3) | 1 | 1.34e6 | 1.48e6 | 1.24e6 | 1.22e6 | inactive |
| ng2 (new glue 2) | 1 | 1.57e6 | 1.55e6 | 1.04e6 | 1.22e6 | inactive |
| CG13026 | 1 | 1.52e6 | 1.75e6 | 1.43e6 | 1.54e6 | inactive |
| CG43902 | 1 | 1.62e6 | 1.58e6 | 9.03e5 | 1.06e6 | inactive |
| CG8435 | 1 | 1.22e6 | 1.37e6 | 1.04e6 | 1.05e6 | inactive |
| CG12398 | 1 | 1.52e6 | 1.55e6 | 1.02e6 | 1.17e6 | inactive |
| Cpr65Ec (Cuticular protein 65Ec) | 1 | 1.45e6 | 1.27e6 | 1.27e6 | 1.44e6 | inactive |
| Nup93-1 (Nucleoporin 93kD-1) | 1 | 4.89e5 | – | 7.86e5 | – | inactive |
| mask (multiple ankyrin repeats single KH domain) | 1 | 1.61e6 | 1.52e6 | 8.87e5 | 9.37e5 | inactive |
| mask (multiple ankyrin repeats single KH domain) | 2 | 1.31e6 | 1.44e6 | 1.02e6 | 1.06e6 | inactive |
| mask (multiple ankyrin repeats single KH domain) | 3 | 1.42e6 | 1.46e6 | 1.03e6 | 1.06e6 | inactive |
| Cpr67Fb (Cuticular protein 67Fb) | 1 | 1.28e6 | 1.43e6 | 1.19e6 | 1.27e6 | inactive |
| Cyp4d1 (Cytochrome P450 4d1) | 1 | 1.26e6 | 1.57e6 | 1.05e6 | 1.09e6 | inactive |
| Cyp4d1 (Cytochrome P450 4d1) | 2 | 1.61e6 | 1.62e6 | 1.04e6 | 1.19e6 | inactive |
